According to the supplement of paper PMC11348887:
Structures can show the parent of a compound that is named as a salt. Some of the results follow. Most values lie at the level of the controls, where differences are scatter. Where a SMILES comes first, the peptide text is derived from it. [ ]: non-standard residue; d: D form. Dip = N[C@H](C(=O)O)C(c1ccccc1)c1ccccc1

Assays:
Conditions in all cases: 5 µM; treatment: days 7-14 after plating, readout day 21
[1] = system: hPSC-derived cortical neurons (WA09); assay: nucleus area z-score vs screen plate; higher = larger nuclei (more mature)
[2] = system: hPSC-derived cortical neurons (WA09); assay: total neurite length per nucleus (MAP2) z-score; higher = more neurite growth
[3] = system: hPSC-derived cortical neurons (WA09); assay: nucleus roundness z-score vs screen plate; higher = rounder nuclei (more mature)
[4] = system: hPSC-derived cortical neurons (WA09); assay: KCl-induced FOS+/EGR-1+ double-positive nuclei fraction z-score (KCl minus unstimulated); higher = stronger activity-induced IEG response

| Structure (SMILES) | nucleus area z-score [1] | total neurite length per nucleus (z-score) [2] | nucleus roundness z-score [3] | KCl-induced FOS+/EGR-1+ double-positive nuclei fraction z-score [4] |
| --- | --- | --- | --- | --- |
| Cc1cc(NS(=O)(=O)c2ccc(N)cc2)no1 [Sulfamethoxazole] | 0.257 | 1.62 | 0.29 | 0.192 |
| Nc1nc(Nc2ccc(S(N)(=O)=O)cc2)nn1C(=O)c1c(F)cccc1F | -2.34 | -0.594 | -3.23 | -0.6 |
| C[C@H](Nc1ncnc2nc[nH]c12)c1cc2cccc(Cl)c2c(=O)n1-c1ccccc1 | 1.19 | 0.17 | -0.331 | -0.366 |
| O=c1n(CCCN2CCN(c3cccc(Cl)c3)CC2)nc2ccccn12 [Trazodone HCl] | -0.256 | 0.0769 | -0.237 | 1.02 |
| Cc1cc(=O)n(-c2ccccc2)n1C [Antipyrine] | -0.314 | 0.252 | 0.379 | -0.018 |
| Cc1nc(Nc2ncc(C(=O)Nc3c(C)cccc3Cl)s2)cc(N2CCN(CCO)CC2)n1 [Dasatinib] | 1.3 | 0.0839 | 0.181 | -0.175 |
| COc1ccc(C[C@H](NC(=O)[C@H](C)NC(=O)CN2CCOCC2)C(=O)N[C@@H](Cc2ccccc2)C(=O)[C@@]2(C)CO2)cc1 | -14.7 | -4.27 | -1.61 | -0.375 |
| CCOC(=O)C1=C(C)NC(C)=C(C(=O)OCC)C1c1ccccc1/C=C/C(=O)OC(C)(C)C [Lacidipine] | -0.508 | -0.432 | -0.204 | -0.0559 |
| CO[C@@]1(NC(=O)C(C(=O)O)c2ccc(O)cc2)C(=O)N2C(C(=O)O)=C(CSc3nnnn3C)CO[C@@H]21 (some centres not stated) [Moxalactam Disodium] | 1.95 | -0.913 | -1.04 | 0.0872 |
| Cc1cnc(NC(=O)C2=C(O)c3ccccc3S(=O)(=O)N2C)s1 [Meloxicam] | 0.424 | -0.204 | 0.426 | 0.189 |
| C[C@]12CCC(=O)C=C1[C@@H]1C[C@@H]1[C@H]1[C@@H]3[C@@H]4C[C@@H]4[C@@]4(CCC(=O)O4)[C@@]3(C)CC[C@@H]12 [Drospirenone] | 0.557 | -1.09 | -2.1 | 0.734 |
| C[C@H](Nc1ncnc2[nH]cnc12)c1cc2ccc(F)cc2nc1-c1ccccn1 | -0.807 | 0.457 | 0.155 | -0.576 |
| O=C(NOCCO)c1ccc2cncn2c1Nc1ccc(I)cc1F | 0.0742 | -0.00517 | -0.508 | -0.334 |
| Nc1nc(Nc2ccc3c(c2)CCC(N2CCCC2)CC3)nn1-c1cc2c(nn1)-c1ccccc1CCC2 (configuration not stated) | -10.2 | -5.38 | -2.02 | -23.4 |
| CC(=O)N1CCN(c2ccc(OCC3COC(Cn4ccnc4)(c4ccc(Cl)cc4Cl)O3)cc2)CC1 (configuration not stated) [Ketoconazole] | 0.0914 | -0.43 | -0.272 | -0.923 |
| CCC(=O)OCC(=O)[C@@]1(OC(=O)CC)[C@@H](C)C[C@H]2[C@@H]3CCC4=CC(=O)C=C[C@]4(C)[C@@]3(F)[C@@H](O)C[C@@]21C [Betamethasone Dipropionate] | 0.748 | -0.537 | -0.0856 | -0.505 |
| Cn1cc(-c2ccc(F)c(C(F)(F)F)c2)nc1C1CCN(c2ncnc3[nH]ncc23)CC1 | 0.502 | 0.0273 | -0.881 | 0.0726 |
| CCc1c2c(nc3ccc(OC(=O)N4CCC(N5CCCCC5)CC4)cc13)-c1cc3c(c(=O)n1C2)COC(=O)[C@]3(O)CC [Irinotecan] | 1.76 | 0.779 | 1.64 | 0.508 |
| CC(=O)[C@H]1CC[C@H]2[C@@H]3CCC4=CC(=O)CC[C@]4(C)[C@H]3CC[C@]12C [Progesterone] | -0.763 | -0.593 | -1.15 | -1.11 |
| COc1cccc2c1c(O)c(C(=O)N(C)c1ccc(C(F)(F)F)cc1)c(=O)n2C [Tasquinimod] | 0.717 | 0.197 | 2.04 | -0.286 |
| CC(C)[C@H](NC(=O)c1ccc2ccccc2n1)C(=O)N[C@@H](CC(=O)O)C(=O)COc1c(F)cccc1F | -0.514 | -0.15 | -0.505 | -0.325 |
| NCCCC[C@H](NC(=O)[C@@H](NC(=O)[C@H](Cc1c[nH]c2ccccc12)NC(=O)[C@H](CCCCN)NC(=O)[C@H](CCCCN)NC(=O)[C@H](Cc1c[nH]c2ccccc12)NC(=O)[C@H](Cc1c[nH]c2ccccc12)NC(=O)[C@H](CCCCN)NC(=O)[C@@H](N)CCCCN)C(c1ccccc1)c1ccccc1)C(N)=O (H-KKWWKKW[Dip]K-NH2) | -0.118 | 0.314 | -1.59 | 0.904 |
| O=S(=O)(O)Oc1ccc(C(c2ccc(OS(=O)(=O)O)cc2)c2ccccn2)cc1 [Sodium Picosulfate] | 0.123 | -0.17 | 0.801 | -0.422 |
| CC(C)(CO)C(O)C(=O)NCCCO (racemic) [DL-Panthenol] | 0.409 | -0.493 | 0.306 | -1.34 |
| CN[C@H](CC(C)C)C(=O)N[C@H]1C(=O)N[C@@H](CC(N)=O)C(=O)N[C@H]2C(=O)N[C@H]3C(=O)N[C@H](C(=O)N[C@H](C(=O)O)c4cc(O)cc(O)c4-c4cc3ccc4O)[C@H](O)c3ccc(c(Cl)c3)Oc3cc2cc(c3O[C@@H]2O[C@H](CO)[C@@H](O)[C@H](O)[C@H]2O[C@H]2C[C@](C)(N)[C@H](O)[C@H](C)O2)Oc2ccc(cc2Cl)[C@H]1O [Vancomycin HCl] | -0.586 | -0.315 | -0.331 | 0.425 |
| Nc1nc(=O)c2c([nH]1)NC[C@H](CNc1ccc(C(=O)N[C@@H](CCC(=O)O)C(=O)O)cc1)N2C=O [Calcium Levofolinate] | -7.67 | -2.48 | -0.475 | 0.435 |
| Nc1nc2ccc(OC(F)(F)F)cc2s1 [Riluzole] | -0.268 | 0.0927 | -0.9 | -1.3 |

Pulled one by one from the entries so far, 2 records:

| Structure (SMILES) | nucleus area z-score [1] | total neurite length per nucleus (z-score) [2] | nucleus roundness z-score [3] | KCl-induced FOS+/EGR-1+ double-positive nuclei fraction z-score [4] |
| --- | --- | --- | --- | --- |
| O=c1n(CCCN2CCN(c3cccc(Cl)c3)CC2)nc2ccccn12 [Trazodone HCl] | -0.256 | 0.0769 | -0.237 | 1.02 |
| Cc1cc(NS(=O)(=O)c2ccc(N)cc2)no1 [Sulfamethoxazole] | 0.257 | 1.62 | 0.29 | 0.192 |

Next compounds.

| Structure (SMILES) | nucleus area z-score [1] | total neurite length per nucleus (z-score) [2] | nucleus roundness z-score [3] | KCl-induced FOS+/EGR-1+ double-positive nuclei fraction z-score [4] |
| --- | --- | --- | --- | --- |
| CCCCCCCCCCCCCCCC[N+](C)(C)C [Cetrimonium Bromide (CTAB)] | -18 | -6.19 | -5.6 | -2.04 |
| COc1cc2ncnc(Nc3ccc(F)c(Cl)c3)c2cc1OCCCN1CCOCC1 [Gefitinib (ZD1839)] | 0.0365 | 0.0189 | -0.0623 | 1.23 |
| CN1CCN(CCOc2cc(OC3CCOCC3)c3c(Nc4c(Cl)ccc5c4OCO5)ncnc3c2)CC1 [Saracatinib (AZD0530)] | 1.09 | 0.316 | -0.361 | -0.644 |
| O=C(O)Cc1ccccc1Nc1c(Cl)cccc1Cl [Diclofenac Sodium] | -0.115 | 0.779 | 0.528 | 0.241 |
| COC(c1ccccc1)(c1ccccc1)[C@H](Oc1nc(C)cc(C)n1)C(=O)O [Ambrisentan] | 0.719 | -0.376 | 0.139 | 0.23 |
| C=C1[C@H](CO)[C@@H](O)C[C@@H]1n1cnc2c(=O)[nH]c(N)nc21 [Entecavir Hydrate] | 1.95 | 1.59 | 1.47 | 1.7 |
| O=C(Nc1cccc(Cl)c1)c1ccccn1 | 0.347 | -0.261 | -0.845 | 0.112 |
| Oc1c(Br)cc(Br)c2cccnc12 [Broxyquinoline] | 0.0971 | 0.866 | 0.731 | 1.89 |
| Nc1ccc2ncnc(NCCc3ccc(Oc4ccccc4)cc3)c2c1 | 0.428 | 0.366 | -0.704 | -0.18 |
| COc1cc2nc(N3CCCC3)nc(NCCCCCN3CCCC3)c2cc1OC | -8.9 | -3.53 | -7.51 | 0.814 |
| CC(C)C[C@H](NC(=O)CNC(=O)c1cc(Cl)ccc1Cl)B1OC(=O)C(CC(=O)O)(CC(=O)O)O1 | -14.6 | -5.81 | -5.23 | -1.44 |
| COc1cc(C(=O)NC2CCCNC2)cc(OC)c1OC (configuration not stated) [Troxipide] | -0.0436 | 0.551 | 0.229 | 0.628 |
| Cc1cnc(-c2ccccc2C(C)C)nc1NCc1ccc(-n2ccnn2)cc1 | -0.0196 | -0.529 | -0.285 | -0.332 |
| CO/N=C(\C(=O)N[C@@H]1C(=O)N2C(C(=O)O)=C(CSc3nc(=O)c(O)nn3C)CS[C@H]12)c1csc(N)n1 [Ceftriaxone Sodium Trihydrate] | 0.555 | 0.457 | 0.185 | 0.422 |
| CCCCOc1ccc(OCCCN2CCOCC2)cc1 [Pramoxine HCl] | 0.987 | -0.908 | -2.03 | -0.805 |
| CC(C(=O)O)c1cccc(Oc2ccccc2)c1 (configuration not stated) [Fenoprofen calcium hydrate] | 0.336 | 0.351 | 0.448 | 0.13 |
| CN1CCN(Cc2ccc(Nc3ncc(Cl)c(Nc4ccccc4S(=O)(=O)N(C)C)n3)cc2)CC1 | -12.6 | -5.61 | -4.48 | -1.54 |
| C=CC(=O)Nc1cccc(Nc2nc(Nc3ccc(N4CCN(C(C)=O)CC4)cc3OC)ncc2C(F)(F)F)c1 | -0.128 | -0.356 | -0.68 | -0.545 |
| NC[C@H]1CC[C@H](C(=O)O)CC1 [Tranexamic Acid] | 0.372 | 0.565 | 0.457 | -0.175 |
| CO[C@H]1C(=O)[C@]2(C)[C@@H](OC)C[C@H]3OC[C@@]3(OC(C)=O)[C@H]2[C@H](OC(=O)c2ccccc2)[C@]2(O)C[C@H](OC(=O)[C@H](O)[C@@H](NC(=O)OC(C)(C)C)c3ccccc3)C(C)=C1C2(C)C [Cabazitaxel] | -1.61 | 1.1 | -2.73 | -0.195 |
| COc1ccc2[nH]c([S@@+]([O-])Cc3ncc(C)c(OC)c3C)nc2c1 [Esomeprazole Sodium] | 1.91 | 0.0289 | -1.35 | -0.798 |
| CC(C)(C)NCC(O)c1cc(O)cc(O)c1 (configuration not stated) [Terbutaline Sulfate] | 1.16 | 0.316 | -0.082 | 1.08 |
| Cc1c[nH]c2nc(Nc3ccc(N4CCN(C)CC4)c(F)c3)nc(-c3cccc(CC#N)c3)c12 | -16.3 | -6.51 | -4.22 | -1.49 |
| O=C(O)/C=C/c1ccc(O)c(O)c1 [Caffeic Acid] | -0.418 | 0.145 | 0.568 | 0.185 |
| NCCC[C@H](N)C(=O)O [L-Ornithine] | 1.21 | 0.92 | 1.5 | 0.943 |
| C[C@@H](O)[C@H]1C(=O)N2C(C(=O)[O-])=C(SC3Cn4cnc[n+]4C3)[C@H](C)[C@H]12 (some centres not stated) [Biapenem] | 1.1 | -0.21 | -0.596 | -0.728 |
